# Results published in PubChem BioAssay AID540256 (National Center for Advancing Translational Sciences (NCATS), 2011).
# Among all 300,000 compounds or so, about 3,700 (1.2%) were called active. The shares of active, inactive and inconclusive entries below differ from those in the screen. Calls follow the shape of the full dose curve; tested in HEK293 cells. A potency beside an inconclusive call is a rough fit, not a confirmed value.
# Test: qHTS for Inhibitors of binding or entry into cells for Lassa Virus; also: nearly all actives have a fitted effect of over 50% in size
# Conditions: Lassa virus pseudotype entry inhibition, cell reporter; activity change, negative = inhibition: at 37.9 µM (top of the series) unless noted
# % is scaled to controls: 0 for no effect and ±100 for the full control effect; potency is read from the fitted curve at half-maximal effect.
Compound,Potency,"activity change, negative = inhibition"
O=C(NC(=O)c1ccccc1O)c1ccc2c(c1)CCO2,active: 11.2 µM,
CCOC(=O)c1[nH]c2ccc(OC)cc2c1NC(=S)N1CCN(c2cccc(C)c2C)CC1,"inconclusive: 4.47 µM [inhibitor, partial curve, poor fit]",
CCN(c1ccccc1)S(=O)(=O)c1ccc2[nH]cc(C(=O)NC3CCCCC3)c(=O)c2c1,"inconclusive: 4.47 µM [inhibitor, full curve, poor fit]",
N#C/C(=C\c1ccccn1)c1ccccn1,"inconclusive: 7.94 µM [inhibitor, partial curve, poor fit]",
COc1ccc(NC(=O)CSc2nnc(Cc3cccs3)n2-c2ccc(C)cc2)cc1,"inconclusive: 18.3 µM [inhibitor, single point]",
Cc1cccc(NC(=O)c2oc3c(c2C)-c2[nH]ncc2CC3)c1C,"inconclusive: 20 µM [activator, single point]",
COc1ccc(CCNc2nc(-c3ccc(C)cc3)cc(C(F)F)n2)cc1OC,"inconclusive: 10 µM [activator, partial curve]",
Oc1c(C(c2ccccc2F)N2CCOCC2)sc2nc(-c3ccco3)nn12 (configuration not stated),,inactive: 5.69% [at 46.1 µM]
COc1ccc(C2(O)CCN(Cc3nnnn3Cc3ccc(C)cc3)CC2)cc1,"inconclusive: 20.6 µM [inhibitor, single point]",
CCCn1nnnc1SCC(=O)N1CCCc2ccccc21,"inconclusive: 1.16 µM [activator, single point]",
CC(C)c1ccc2c(c1)CCC1C(C)(CN)CCCC21C (configuration not stated),"inconclusive: 31.6 µM [inhibitor, single point]",
COc1ccccc1-c1cc(C(=O)NCc2cccs2)no1,,inactive: -2.41%
CCc1nn2c(-c3ccccc3OC)ccnc2c1-c1ccc(F)cc1,,inactive: 2.19% [at 46.1 µM]
S=c1[nH]c2ccccc2n1Cc1ccccc1,"inconclusive: 20 µM [inhibitor, single point]",
CCc1noc(C)c1C(=O)N1CCCC(N2CCN(c3ccc(F)cc3)CC2)C1 (configuration not stated),,inactive: 5.55%
CCC(NC(=O)c1ccccc1NC(=O)c1ccco1)C(=O)NNC(=O)c1ccc(OC)cc1 (configuration not stated),"inconclusive: 5.62 µM [inhibitor, single point]",
O=[N+]([O-])c1ccc(CNc2cccc(F)c2)s1,,inactive: -18%
CCOC(=O)c1cccc(NC(=O)CC(c2cc(OC)c(OC)c(OC)c2)N2Cc3ccccc3C2=O)c1 (configuration not stated),,inactive: -3.16% [at 46.1 µM]
COc1ccc(C2CC(c3ccccc3)=NN2C(=O)COC(=O)C2CC2)cc1 (configuration not stated),,inactive: 11%
Cc1sc(NC(=O)CN2CCCC2)nc1-c1ccc2c(c1)CCN2C(=O)c1cccc(F)c1,"inconclusive: 35.5 µM [inhibitor, partial curve, poor fit]",
CC1(C)Cc2c(C#N)c(NCCc3ccccc3)nc(-c3ccco3)c2CO1,"inconclusive: 22.4 µM [inhibitor, partial curve, poor fit]",
Cc1ccc(CCNC(=O)C(CC(C)C)NS(=O)(=O)c2ccc3c(c2)oc(=O)n3C)cc1 (configuration not stated),"inconclusive: 14.1 µM [activator, partial curve, poor fit]",
O=C(NCC(c1ccco1)N1CCCCC1)c1cccc(NS(=O)(=O)c2ccc(Br)cc2)c1 (configuration not stated),"inconclusive: 2.24 µM [inhibitor, single point]",

Compound,Potency,"activity change, negative = inhibition"
COc1ccc(OCC(=O)Nc2cccc3cccnc23)cc1,,inactive: 1.86%
O=C(NCC(=O)N1CC=C(c2ccccc2)CC1)c1ccc(F)cc1,"inconclusive: 6.31 µM [inhibitor, single point]",
Cc1cccc(C(=O)N2CCc3cc(CNC(=O)c4ccnn4C)ccc32)c1,"inconclusive: 7.94 µM [inhibitor, partial curve, poor fit]",
O=[N+]([O-])c1ccc2nc(/C=C/c3ccc(Cl)cc3)[nH]c2c1,"inconclusive: 29.1 µM [inhibitor, single point]",
O=C(Oc1ccccc1C(=O)Nc1ccccc1)c1ccccc1Br,,inactive: -20.7%
CC(=O)Oc1ccc(CCC(C)OC(C)=O)cc1 (configuration not stated),"inconclusive: 1.46 µM [inhibitor, full curve, poor fit]",
COC(=O)c1ccc(S(=O)(=O)N2CCCCCC2)cc1,,inactive: 10.8%
CCC(=O)Nc1cccc(C(=O)/C=C/c2ccc(F)cc2)c1,"inconclusive: 29.1 µM [inhibitor, single point]",
CCCCNC(=O)C1CCN(C(=O)N2CC(C)Oc3ccc(Cl)cc32)CC1 (configuration not stated),"inconclusive: 35.5 µM [inhibitor, single point]",
O=C(COC(=O)/C=C/c1ccccc1[N+](=O)[O-])Nc1ccc(S(=O)(=O)N2CCOCC2)cc1,,inactive: 27.7%
CCCCN(C)CCCNC(=O)CN1C(=O)COc2ccc(S(=O)(=O)N3CCC(C)CC3)cc21,"inconclusive: 35.5 µM [inhibitor, single point]",
Cc1c(C(=O)Nc2ccc(-c3nnc4n3CCCCC4)cc2)oc2c1ccc1ccccc12,"inconclusive: 35.5 µM [inhibitor, single point]",
COc1ccc(CNc2nc(S(=O)(=O)c3ccccc3)c(Cl)s2)cc1OC,"inconclusive: 35.5 µM [inhibitor, single point]",
CCOC(=O)C1CCN(C(=O)c2ccccc2NS(=O)(=O)c2cc(C)ccc2C)CC1,"inconclusive: 14.1 µM [inhibitor, partial curve, poor fit]",
COc1ccc(CNC(=O)COC(=O)/C=C/c2cccc(Br)c2)cc1,,inactive: -1.15% [at 46.1 µM]
Nc1ncnc2c1nc(Br)n2C1OC2COP(=O)(O)O[C@@H]2C1O (some centres not stated),"inconclusive: 6.51 µM [inhibitor, full curve, poor fit]",
CCOc1ccc(N=CNc2ccc(OCC)cc2)cc1,,inactive: 5.64% [at 46.1 µM]
COc1ccc(C(=O)CSc2nnc(C3CCCCC3)n2N)c(OC)c1,"inconclusive: 22.4 µM [inhibitor, single point]",
O=C(Oc1ccc([N+](=O)[O-])cc1)c1cncc(Br)c1,"inconclusive: 35.5 µM [activator, partial curve, poor fit]",
O=C(CSc1nc(C(F)(F)F)cc(=O)[nH]1)Nc1ccc2c(c1)OCCO2,,inactive: 4.28%
Cc1[nH]c2ccccc2c1C(c1ccncc1)N1CCCCC1 (configuration not stated),"inconclusive: 22.4 µM [inhibitor, single point]",
Cc1ccc(C(=O)c2coc3cc([N+](=O)[O-])c(O)c([N+](=O)[O-])c23)cc1,"inconclusive: 7.94 µM [inhibitor, partial curve]",
CN1CCN(CC(O)COCCOc2ccc(Br)cc2)CC1 (configuration not stated),"inconclusive: 23.1 µM [activator, single point]",

# 3 compounds already listed, sorted by SMILES length, rising:
Compound,Potency,"activity change, negative = inhibition"
CN1CCN(CC(O)COCCOc2ccc(Br)cc2)CC1 (configuration not stated),"inconclusive: 23.1 µM [activator, single point]",
O=C(NCC(=O)N1CC=C(c2ccccc2)CC1)c1ccc(F)cc1,"inconclusive: 6.31 µM [inhibitor, single point]",
COc1ccc(CNc2nc(S(=O)(=O)c3ccccc3)c(Cl)s2)cc1OC,"inconclusive: 35.5 µM [inhibitor, single point]",

# Further entries:

Compound,Potency,"activity change, negative = inhibition"
CN(CCOc1ccccc1)CC(=O)Nc1ccc(Cl)c(S(=O)(=O)N(C)C)c1,"inconclusive: 20 µM [inhibitor, partial curve, poor fit]",
O=[N+]([O-])c1cc(S(=O)(=O)N2CCCCC2)ccc1NCCN1CCOCC1,,inactive: 2.91%
CSc1ncccc1C(=O)Nc1ccc(OC(F)(F)F)cc1,,inactive: -6.1%
CC(CCCC(C)(C)O)NC(=O)c1cc(COc2ccc3ncccc3c2)on1 (configuration not stated),"inconclusive: 2 µM [inhibitor, full curve, poor fit]",
COc1ccccc1NC(=O)CN1CCN(c2ccc(F)cc2)CC1,"inconclusive: 17.8 µM [inhibitor, partial curve, poor fit]",
FC(F)(F)c1cccc(NC(=S)Nc2ccc(Cl)cc2Cl)c1,"inconclusive: 10 µM [inhibitor, partial curve]",
Cc1cccc(C)c1-n1ncc(C(=O)NCc2ccc3c(c2)OCO3)c1C1CCN(C(=O)OC(C)(C)C)CC1,"inconclusive: 6.31 µM [inhibitor, single point]",
CCOc1ccc(CC(=O)Nc2ccc3c(c2)N(C)C(=O)c2ccccc2S3)cc1OCC,"inconclusive: 17.8 µM [inhibitor, single point]",
O=C(COC(=O)c1cc(=O)[nH]c2ccccc12)NC(=O)NC1CCCCC1,"inconclusive: 0.708 µM [inhibitor, single point]",
CCOc1ccc(CCNC(=O)COC(=O)c2ccc(OC(C)C)cc2)cc1OCC,,inactive: -2.88%
COc1ccc(NC(=O)c2cccnc2)c([N+](=O)[O-])c1,"inconclusive: 4.47 µM [inhibitor, partial curve]",
O=C(COc1ccc(Cl)cc1)Nc1sc2c(c1C(=O)Nc1cccc(Cl)c1)CCCC2,,inactive: 5.1% [at 46.1 µM]
CCC(C)(C)NC(=O)C(c1ccc(OC)cc1)N(C(=O)CCC(=O)Nc1cc(C)on1)c1cccc(OC)c1 (configuration not stated),"inconclusive: 6.31 µM [inhibitor, single point]",
COc1ccccc1-c1c(C)nn2c(-c3ccccc3)cc(C)nc12,"inconclusive: 35.5 µM [inhibitor, partial curve, poor fit]",
Cc1cccc(OCC(=O)Nc2nonc2-c2ccc(Br)cc2)c1C,,inactive: -1.9% [at 46.1 µM]
C=CCn1c(SCC(=O)N2CCOCC2)nc2scc(-c3ccco3)c2c1=O,active: 10.3 µM,
COc1ccc(C2=NN(c3nc(C)cc(C)n3)C(=O)C2)cc1,"inconclusive: 1.12 µM [activator, full curve, poor fit]",
COc1ccc(OC)c(S(=O)(=O)Nc2ccc(-c3ccc4nnc(C)n4n3)cc2)c1,"inconclusive: 6.31 µM [inhibitor, partial curve, poor fit]",
O=[N+]([O-])c1ccc(N=NNc2ccccc2)cc1,,inactive: 16.6%
OC(c1ccccc1)(c1ccccc1)c1nccc2ccccc12,"inconclusive: 25.1 µM [inhibitor, single point]",
Cc1cc(C)cc(NS(=O)(=O)c2c(C)[nH]c(=O)[nH]c2=O)c1,"inconclusive: 31.6 µM [inhibitor, single point]",
